These results are taken from paper PMC9426557.

The target in the assay is T1, HDA-2 (histone deacetylase 2, endogenous) (Neurospora crassa (endogenous in N. crassa mycelium)) (UniProt Q7SEL7).
T1 sequence: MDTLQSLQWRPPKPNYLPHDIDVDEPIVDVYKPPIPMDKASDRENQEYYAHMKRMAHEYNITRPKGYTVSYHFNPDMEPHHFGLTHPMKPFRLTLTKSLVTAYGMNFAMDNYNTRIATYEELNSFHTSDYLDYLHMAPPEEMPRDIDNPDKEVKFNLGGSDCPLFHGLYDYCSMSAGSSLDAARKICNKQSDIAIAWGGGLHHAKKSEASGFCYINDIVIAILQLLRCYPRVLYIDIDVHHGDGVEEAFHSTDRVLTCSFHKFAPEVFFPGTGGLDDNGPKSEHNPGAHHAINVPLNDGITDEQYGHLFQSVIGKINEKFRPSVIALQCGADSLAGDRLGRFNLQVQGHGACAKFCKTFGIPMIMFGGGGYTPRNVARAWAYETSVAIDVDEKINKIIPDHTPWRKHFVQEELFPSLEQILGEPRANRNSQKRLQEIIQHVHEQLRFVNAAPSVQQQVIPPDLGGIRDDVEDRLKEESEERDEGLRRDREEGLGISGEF
Briefly: co-IP; N. crassa WT-strain cell extracts with ectopic Myc-tagged protein, precipitated with anti-HDA-2 or anti-SIF-2 antibody, protein G-Sepharose; eluates blotted with anti-Myc and anti-HDA-2 or anti-SIF-2.

No constants are given. Whether binding was seen depends on the method and setting. In cells and extracts the contact can be indirect. Some results given as binding are weak or reduced against the parent protein; the word gives no strength. Tags and fused reporters may be left off the sequences shown.

B1: Myc-CPR-1 (protein, UniProt Q7S7Z6 28-285)
chain: AKGPKITHKVYFDIEQGDKPLGRIVMGLYGKTVPKTAENFRALATGEKGFGYEGSTFHRVIKQFMIQGGDFTKGDGTGGKSIYGDKFPDENFKLKHSKKGLLSMANAGKDTNGSQFFITTVITSWLDGKHVVFGEVLEGYDVVEKIENTKTGPRDAPAEPIKIAKSGELEVPPEGLEGQSEWASPAYANEDEKPAAPVPVTDAKPPAHDSIPAATADDDDTGAPLFAKVLFFGVLVLGLVLYIRLRRAPKGTYGKGME
Regarding B1, the binding result was “binds”.

B2: Myc-SET-4 (protein, UniProt Q7RZ84 1-948)
chain: MTDKLPSLLTPIAPPSRTSFSVSAAVPVQDGIRAQENVEEEPYTIRCICKYPDDDGNTIYCELCDTWQHIECYYPNNSEDALRDPDFAHFCVECQPRPLDRERAKENQRRKLTTGVTEGMADKKSKRPISKSHKKKPKPSDLPLTGQHSKAEKQASIQDSHPPTKKSKSSHKSSHSVSSQAAKRSPQFGSTKSNHAHPPSPAATPPDLPADFEIHTYAPALLSGSSDRGVEIVHTNSFASLQVSNAISAWLRDHNKLQKETGWAYADIFQPLPPNIDQLKRPVDIELSRKTLGQGTVASWKCLKAPSAIAHNVPLVELNGQIGIQSSYCADPDSRWQELTSPLPYVFFHPMLPIYIDTRKEGSQARYIRRSCKPNAMLETYLSDGYELHFWLVTDRQVAAREEITLPWDFRFPNENKSRMLRVLGLSDEDTSAHAESSVDDGEYQALTSWLHNILSEYGGCACNLGSECAFARFHRNHLGKSQAPANPPKTKKRKSKTQSSSTIGTGPATDSRAASEGHLEDAPENDRRSVSGSARSKPPSRDLTPTARQGSFDTLGILTEPTDRDKRKVSMIEETFRRIELQQQPTKKRKARGSDAATTSKKGSKSSATTQTTNATNGPDERHCHFANGETAITSKATSPAASAKSGRVTKSKKTSSRKGSVAVVSHPVPAQPVRLPSRPKYADAGTQTNPDTEANPAPSPARPKRRLVSVTMRIMQHHRWLKEQQGKQRLLNQAVATVPMDVDSPKDNKAVVSVAGSVQDTTLKPSAPSKVTTSDVEMPDAPTVSASHLKAAQSTSVVTAPKSKVLDLRVPMPPVPPFPSSTSLALTSTTSLPAGTSAAQSSFSVTGLPSPLGPSSINGLTANPSPIKKKLSLSDYTKSRMNKAAAARPSVSVPSLKPNAALDEPKLTTSDDNGGAASGSPTTEKVTDTTGSTTAALALTTASSSV
As to B2, the binding result was “binds”.
